Source: patent WO1999010379A1
Results are given in words; binding and its absence hold for the method and conditions named. Some binding calls cover weakened binding; strength is not graded here.

Tests used:
[1] = target: MUC1 peptide Thr-Ser-Ala-Pro-Asp-Thr-Arg-Pro-Ala-Pro-Gly-Ser-Thr ("the crystal peptide"); test: X-ray crystal structure, legend of Figure 4
[2] = target: MUC1 peptide Thr-Ser-Ala-Pro-Asp-Thr-Arg-Pro-Ala-Pro-Gly-Ser-Thr ("the crystal peptide"); test: X-ray crystal structure, legend of Figure 5
[3] = target: MUC1 peptide Thr-Ser-Ala-Pro-Asp-Thr-Arg-Pro-Ala-Pro-Gly-Ser-Thr ("the crystal peptide"); test: X-ray crystal structure, legend of Figure 15
[4] = target: MUC1 peptide Thr-Ser-Ala-Pro-Asp-Thr-Arg-Pro-Ala-Pro-Gly-Ser-Thr ("the crystal peptide"); test: X-ray crystal structure of the Fab-peptide complex

Measured: binding

B1: SM3 Fab fragment (obtained by papain digestion of SM3) (Fab, V domains shown)
VH: QVQLQESGGGLVQPGGSMKLSCVASGFTFSNYWMNWVRQSPEKGLEWVAEIRLKSNNYATHYAESVKGRFTISRDDSKSSVYLQMNNLRAEDTGIYYCTGVGQFAYWGQGTTVTVS
VL: DIVVTQESALTTSPGETVTLTCRSSTGAVTTSNYANWVQEKPDHLFTGLIGGTNNRAPGVPARFSGSLIGDKAALTITGAQTEDEAIYFCALWYSNHWVFGGGTKLTVLG
binds: all assays above
